Taken from: PubChem BioAssay AID504764 (Drosophila RNAi Screening Center, 2011)
The screen tested about 22,000 reagents; below is a random part of those with a known target gene and a result. In the full data, 403 (1.9%) got an active call. 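Unnormalised raw counts per well; ratio z-scores behind the hit calls and whether each hit raises or lowers signal are not deposited.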 Names joined by + are all predicted targets of the reagent. Reagent sequences are not shown. Not stated in the record: the amount of reagent.

- Purpose: 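Genes whose knock-down alters Notch-dependent transcription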 (primary screen)
- Cell system: Drosophila Kc167 cells
- Reagent: long dsRNA against Drosophila genes
- Time to read-out: about 5 days (4 days dsRNA, then 24 h after transfection)
- Conditions: transfection of constitutively active membrane-tethered Notch lacking the extracellular domain, read 24 h later
- Measurement: 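Light from a Notch-responsive E(spl)m3 luciferase reporter under active Notch, with control-promoter and no-Notch reporter wells to normalise; raw counts from paired wells a and b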
- Direction: induced reporter light, run 1, well a and induced reporter light, run 1, well b: higher = more light from the Notch target reporter with active Notch; control promoter light, run 1, well a and control promoter light, run 1, well b: higher = more light from the viral control promoter (cell number, transfection, viability); uninduced reporter light, run 1, well a: higher = more light from the Notch target reporter without active Notch
- Call rule: 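Wells with low control signal or poorly matching duplicates excluded; duplicates averaged; per source plate, z beyond ±2 for induced/control log2 ratio or beyond ±1.8 for induced/uninduced marks a hit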
- Meaning of the calls: active = modifier hit (raised or lowered Notch signal); inactive = not a hit

gene	dsRNA	induced reporter light, run 1, well a	induced reporter light, run 1, well b	control promoter light, run 1, well a	control promoter light, run 1, well b	uninduced reporter light, run 1, well a	activity call
Eip63F-1	DRSC08072	2.06e5	1.95e5	1.90e5	1.76e5	11885	inactive
Eip63F-1	DRSC08659	99950	93775	1.46e5	1.74e5	7160	inactive
CG5302 (retired record)	DRSC15764	2.41e5	2.27e5	2.29e5	2.15e5	17370	inactive
CG5302 (retired record)	DRSC15765	1.92e5	2.47e5	1.81e5	2.16e5	15930	inactive
NP15.6	DRSC16756	1.47e5	1.32e5	1.79e5	1.61e5	11380	inactive
Cpr62Bc	DRSC08545	75330	94035	1.40e5	81660	3485	inactive
PPP1R15	DRSC04422	1.31e5	1.48e5	1.42e5	1.33e5	11580	inactive
Gal	DRSC03134	1.36e5	89905	1.51e5	1.31e5	7400	inactive
CG7557	DRSC10878	1.19e5	1.13e5	81565	34520	10970	inactive
CG17782	DRSC15267	1.71e5	1.54e5	1.86e5	1.98e5	13715	inactive
TTLL4A	DRSC02528	2.16e5	3.00e5	2.10e5	2.08e5	19375	inactive
CG14401	DRSC02385	30635	33190	30000	42520	2260	inactive
CG3342	DRSC18304	2.10e5	2.09e5	2.30e5	2.38e5	13910	inactive
CG42579	DRSC20391	1.02e5	1.08e5	1.17e5	1.22e5	9555	inactive
Muc96D	DRSC13709	1.41e5	1.74e5	1.79e5	1.80e5	14345	inactive
CG31802	DRSC02459	1.46e5	1.62e5	1.29e5	1.67e5	12870	inactive
CG1273	DRSC08291	1.37e5	1.69e5	2.78e5	2.36e5	13330	inactive
Cpr66Cb	DRSC10769	2.01e5	2.03e5	2.58e5	2.24e5	12042	inactive
Flad1	DRSC19898	1.79e5	1.75e5	1.93e5	2.39e5	15895	inactive
crp	DRSC03515	87535	95775	98865	1.06e5	7780	inactive
CG10749	DRSC09798	1.41e5	1.21e5	2.03e5	1.38e5	7050	inactive
CG31821	DRSC22162						inactive
pira	DRSC19494	82715	91335	1.29e5	1.18e5	5590	inactive
CG18180	DRSC10304	1.02e5	98805	61185	34025	9960	inactive
CG42471	DRSC01210	1.20e5	1.18e5	1.60e5	1.57e5	8910	inactive
CG33203	DRSC14874	39990	47710	26835	25685	7500	inactive
CG33203	DRSC14876	1.48e5	1.31e5	2.25e5	1.75e5	12400	inactive
CG33203	DRSC14877	1.51e5	1.35e5	1.81e5	1.56e5	10530	inactive
CG11808	DRSC06088	1.02e5	1.03e5	1.96e5	2.18e5	10650	inactive
CG11498	DRSC14315	1.33e5	1.59e5	1.72e5	1.68e5	10655	inactive
lectin-37Db	DRSC03279	50790	52190	53685	47360	2720	inactive
CR13656	DRSC13705	1.97e5	1.71e5	1.76e5	1.89e5	15020	inactive
CR13656	DRSC14656	1.67e5	1.84e5	2.04e5	2.48e5	14625	inactive
Irp-1A	DRSC16719	1.70e5	1.69e5	2.79e5	2.18e5	15965	inactive
Tmem131	DRSC07154	1.11e5	1.18e5	2.17e5	2.69e5	10510	inactive
Indy	DRSC10393	70745	82165	57965	63600	5450	inactive
CG15912	DRSC18105	1.38e5	1.37e5	2.64e5	2.82e5	11235	inactive
CR11235	DRSC20480	82250	1.12e5	1.18e5	1.51e5	11085	inactive
dachs	DRSC02072	2.09e5	2.26e5	2.65e5	2.93e5	17635	inactive
dachs	DRSC02191	1.73e5	2.26e5	1.04e5	1.44e5	26740	inactive
Ndf	DRSC02775	2.11e5	1.86e5	1.84e5	1.76e5	12770	inactive
CG15152	DRSC02453	1.26e5	1.39e5	1.50e5	1.72e5	10725	inactive
Kaz-m1	DRSC16990	1.41e5	1.24e5	1.86e5	1.77e5	12575	inactive
CG14591	DRSC04868	1.51e5	1.26e5	1.86e5	1.63e5	7920	active
snf	DRSC18835	1.69e5	1.45e5	1.54e5	1.60e5	11965	inactive
CG16837	DRSC04283	1.74e5	1.68e5	1.99e5	1.89e5	14050	inactive
GluRIIC	DRSC00642	2.03e5	1.85e5	2.06e5	2.07e5	19290	inactive
scpr-A + scpr-C	DRSC15737	1.09e5	1.13e5	1.25e5	79115	6315	inactive
gig	DRSC11351	1.86e5	1.97e5	2.75e5	2.50e5	13425	inactive
Cep290	DRSC08359	98620	1.06e5	1.32e5	1.56e5	6440	inactive
Cpn	DRSC16613	1.16e5	1.04e5	67195	71960	8550	inactive
SdhB	DRSC05018	1.61e5	1.93e5	1.43e5	1.43e5	13705	inactive
SdhB	DRSC21367						inactive
Rchy1	DRSC02542	30925	30555	24295	23180	5700	inactive
oxt	DRSC08522	63475	62250	1.03e5	95520	4765	inactive
ncd	DRSC17012	1.11e5	1.11e5	1.38e5	1.35e5	10900	active
Drsl1	DRSC22490						inactive
r-cup	DRSC20475	95830	96545	1.16e5	1.21e5	10735	inactive
CG15482	DRSC02492	1.31e5	1.26e5	1.14e5	1.27e5	11270	inactive
CG14071	DRSC02374	99935	1.56e5	59750	71510	16400	inactive
Nle	DRSC00763	1.20e5	1.12e5	1.07e5	83130	9695	inactive
wts	DRSC17096	3925	3910	8805	8300	2750	inactive
Irc	DRSC16454	2.57e5	1.95e5	2.49e5	2.98e5	21565	inactive
udt	DRSC14214	1.48e5	1.53e5	2.07e5	2.12e5	14355	inactive
